# From article PMC8228714, “Structural Constraint of Osteopontin Facilitates Efficient Binding to CD44” (Biomolecules, 2021)
# The chains behind the UniProt entries cited, without tags or fusion partners. Where a name states a change or a piece, a line headed by the entry shows the natural chain unless it says otherwise. Residues count along the entry.
# UniProt Q13797: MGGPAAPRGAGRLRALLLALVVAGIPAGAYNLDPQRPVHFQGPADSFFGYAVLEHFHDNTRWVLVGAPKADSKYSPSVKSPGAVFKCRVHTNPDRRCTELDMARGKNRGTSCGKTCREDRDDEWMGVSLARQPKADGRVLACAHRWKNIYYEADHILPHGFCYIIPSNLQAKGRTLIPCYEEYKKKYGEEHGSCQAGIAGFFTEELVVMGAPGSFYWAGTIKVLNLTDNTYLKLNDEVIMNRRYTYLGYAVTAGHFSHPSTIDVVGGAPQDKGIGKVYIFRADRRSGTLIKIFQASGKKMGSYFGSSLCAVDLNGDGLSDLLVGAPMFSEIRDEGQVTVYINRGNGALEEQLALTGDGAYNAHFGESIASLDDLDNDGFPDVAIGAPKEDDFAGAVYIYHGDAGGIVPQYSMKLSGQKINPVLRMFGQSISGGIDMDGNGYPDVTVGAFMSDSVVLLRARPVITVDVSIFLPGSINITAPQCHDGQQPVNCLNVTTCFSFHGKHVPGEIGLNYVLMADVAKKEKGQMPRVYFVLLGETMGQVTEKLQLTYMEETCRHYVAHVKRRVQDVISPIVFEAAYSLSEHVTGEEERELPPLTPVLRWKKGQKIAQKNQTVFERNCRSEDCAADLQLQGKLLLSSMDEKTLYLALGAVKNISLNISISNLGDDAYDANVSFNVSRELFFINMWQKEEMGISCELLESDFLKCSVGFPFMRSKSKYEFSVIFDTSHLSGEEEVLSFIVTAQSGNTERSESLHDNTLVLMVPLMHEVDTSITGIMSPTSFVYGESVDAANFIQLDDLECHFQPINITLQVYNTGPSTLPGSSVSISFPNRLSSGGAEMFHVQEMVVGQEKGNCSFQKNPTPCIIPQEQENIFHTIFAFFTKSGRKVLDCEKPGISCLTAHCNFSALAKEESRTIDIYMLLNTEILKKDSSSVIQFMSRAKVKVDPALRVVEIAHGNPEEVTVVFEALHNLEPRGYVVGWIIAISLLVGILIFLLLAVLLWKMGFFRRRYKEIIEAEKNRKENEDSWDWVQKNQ
# UniProt P13612: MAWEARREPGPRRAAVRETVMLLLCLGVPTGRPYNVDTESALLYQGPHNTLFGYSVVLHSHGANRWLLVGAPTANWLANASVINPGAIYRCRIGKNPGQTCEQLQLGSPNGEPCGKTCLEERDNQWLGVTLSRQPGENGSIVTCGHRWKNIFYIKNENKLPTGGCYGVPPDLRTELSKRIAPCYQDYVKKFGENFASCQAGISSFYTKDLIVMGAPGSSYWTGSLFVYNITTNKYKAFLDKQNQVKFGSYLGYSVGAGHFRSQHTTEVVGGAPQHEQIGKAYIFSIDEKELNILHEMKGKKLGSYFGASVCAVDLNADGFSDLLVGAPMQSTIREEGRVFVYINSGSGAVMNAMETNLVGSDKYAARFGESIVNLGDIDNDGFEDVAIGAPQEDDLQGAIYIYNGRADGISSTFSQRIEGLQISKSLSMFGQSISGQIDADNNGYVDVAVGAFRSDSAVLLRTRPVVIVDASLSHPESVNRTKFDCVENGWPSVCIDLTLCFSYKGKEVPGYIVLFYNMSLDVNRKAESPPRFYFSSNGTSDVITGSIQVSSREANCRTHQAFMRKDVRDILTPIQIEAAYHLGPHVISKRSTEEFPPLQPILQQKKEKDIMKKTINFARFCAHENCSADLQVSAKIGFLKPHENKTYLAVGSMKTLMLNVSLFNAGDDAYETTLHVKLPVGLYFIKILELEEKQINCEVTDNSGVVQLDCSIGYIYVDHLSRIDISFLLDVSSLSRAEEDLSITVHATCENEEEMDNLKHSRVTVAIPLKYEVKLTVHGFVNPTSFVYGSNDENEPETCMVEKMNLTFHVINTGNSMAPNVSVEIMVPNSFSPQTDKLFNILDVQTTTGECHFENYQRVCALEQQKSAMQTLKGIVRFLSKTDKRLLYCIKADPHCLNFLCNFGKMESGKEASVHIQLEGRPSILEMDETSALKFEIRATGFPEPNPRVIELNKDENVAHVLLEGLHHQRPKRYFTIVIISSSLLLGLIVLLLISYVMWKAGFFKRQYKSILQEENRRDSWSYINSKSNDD
# UniProt P10451, residues 17-314: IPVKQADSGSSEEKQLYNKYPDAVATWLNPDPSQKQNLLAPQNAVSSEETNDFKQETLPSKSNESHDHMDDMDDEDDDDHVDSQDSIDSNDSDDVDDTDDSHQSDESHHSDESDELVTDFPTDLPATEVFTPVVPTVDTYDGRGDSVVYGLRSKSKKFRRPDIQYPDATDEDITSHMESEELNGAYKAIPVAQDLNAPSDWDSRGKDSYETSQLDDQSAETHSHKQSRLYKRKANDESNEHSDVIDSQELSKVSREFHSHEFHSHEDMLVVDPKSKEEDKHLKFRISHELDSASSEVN
# Results are given in words; binding and its absence hold for the method and conditions named. Some entries that bind do so weakly or less than the wild type.
# Legend:
# [1] = molecular target: T1, extracellular portion of integrin α9β1 (R&D Systems) (UniProt Q13797 30-977; P05556 21-728); experiment: ELISA; receptor (CD44v or integrin) plated on a high-binding 96-well plate, GST-OPN in solution 2 h at room temperature; 10 mM HEPES pH 7.4, 150 mM NaCl, 2 mM MnCl2, 0.05% Tween 20; detection with HRP-anti-GST; constants from double-reciprocal plots; both purified
# T1 construct: also called α9β1 extracellular domain; source: bought: R&D Systems
# [2] = molecular target: extracellular portion of integrin α4β1 (R&D Systems) (UniProt P13612); experiment: as above
substance,measurement,setting,value
Bacterial recombinant GST-OPNa (after deletion of the signal sequence) (from UniProt P10451-1 17-314) (ligand),binding,[1],binds weakly
same,binding,[2],binds weakly
